Data published in paper PMC11056319, “Targeting PRMT9-mediated arginine methylation suppresses cancer stem cell maintenance and elicits cGAS-mediated anticancer immunity” (Nature Cancer, 2024).
These are yes or no findings as the source states them, for the method shown. In cells and extracts the contact can be indirect. Some entries that bind do so weakly or less than the wild type. Where a sequence is shown, tags or fusion partners need not be part of it.

Experiments:
[1] = biological target: T1, FLAG-tagged XRN2 WT, full-length, gRNA-resistant (UniProt Q9H0D6); test: co-IP; XRN2-engineered THP1 cells (FLAG-XRN2 WT or R946K, endogenous XRN2 knocked out); IP with anti-FLAG beads; interactors detected by immunoblot
T1 sequence: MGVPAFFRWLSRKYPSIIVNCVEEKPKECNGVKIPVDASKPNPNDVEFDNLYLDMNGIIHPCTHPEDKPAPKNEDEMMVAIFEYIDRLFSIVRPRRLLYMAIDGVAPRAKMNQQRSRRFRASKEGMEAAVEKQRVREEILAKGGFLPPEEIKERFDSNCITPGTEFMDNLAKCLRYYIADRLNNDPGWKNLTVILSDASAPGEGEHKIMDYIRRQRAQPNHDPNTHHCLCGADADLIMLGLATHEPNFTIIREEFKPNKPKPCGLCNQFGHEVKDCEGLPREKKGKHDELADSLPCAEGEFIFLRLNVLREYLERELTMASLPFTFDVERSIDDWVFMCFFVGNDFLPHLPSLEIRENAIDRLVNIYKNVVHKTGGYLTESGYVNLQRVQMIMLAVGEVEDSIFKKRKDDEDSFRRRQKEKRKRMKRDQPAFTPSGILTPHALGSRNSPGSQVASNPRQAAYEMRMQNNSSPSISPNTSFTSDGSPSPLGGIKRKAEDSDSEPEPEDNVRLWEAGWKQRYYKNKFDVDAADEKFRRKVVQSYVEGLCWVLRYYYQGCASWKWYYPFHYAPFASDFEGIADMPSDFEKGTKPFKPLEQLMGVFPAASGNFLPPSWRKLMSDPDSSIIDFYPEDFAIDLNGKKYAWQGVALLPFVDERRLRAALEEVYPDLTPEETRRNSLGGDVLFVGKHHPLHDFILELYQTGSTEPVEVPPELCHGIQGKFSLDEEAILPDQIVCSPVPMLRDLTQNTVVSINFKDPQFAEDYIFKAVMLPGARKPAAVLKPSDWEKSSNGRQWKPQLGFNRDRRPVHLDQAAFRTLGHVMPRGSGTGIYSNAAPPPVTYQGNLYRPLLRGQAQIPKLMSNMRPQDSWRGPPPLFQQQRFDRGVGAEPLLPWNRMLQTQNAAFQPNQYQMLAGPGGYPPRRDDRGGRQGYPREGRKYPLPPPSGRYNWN

[2] = biological target: T2, FLAG-tagged XRN2-R946K, full-length, gRNA-resistant (UniProt Q9H0D6); test: as above
T2 sequence: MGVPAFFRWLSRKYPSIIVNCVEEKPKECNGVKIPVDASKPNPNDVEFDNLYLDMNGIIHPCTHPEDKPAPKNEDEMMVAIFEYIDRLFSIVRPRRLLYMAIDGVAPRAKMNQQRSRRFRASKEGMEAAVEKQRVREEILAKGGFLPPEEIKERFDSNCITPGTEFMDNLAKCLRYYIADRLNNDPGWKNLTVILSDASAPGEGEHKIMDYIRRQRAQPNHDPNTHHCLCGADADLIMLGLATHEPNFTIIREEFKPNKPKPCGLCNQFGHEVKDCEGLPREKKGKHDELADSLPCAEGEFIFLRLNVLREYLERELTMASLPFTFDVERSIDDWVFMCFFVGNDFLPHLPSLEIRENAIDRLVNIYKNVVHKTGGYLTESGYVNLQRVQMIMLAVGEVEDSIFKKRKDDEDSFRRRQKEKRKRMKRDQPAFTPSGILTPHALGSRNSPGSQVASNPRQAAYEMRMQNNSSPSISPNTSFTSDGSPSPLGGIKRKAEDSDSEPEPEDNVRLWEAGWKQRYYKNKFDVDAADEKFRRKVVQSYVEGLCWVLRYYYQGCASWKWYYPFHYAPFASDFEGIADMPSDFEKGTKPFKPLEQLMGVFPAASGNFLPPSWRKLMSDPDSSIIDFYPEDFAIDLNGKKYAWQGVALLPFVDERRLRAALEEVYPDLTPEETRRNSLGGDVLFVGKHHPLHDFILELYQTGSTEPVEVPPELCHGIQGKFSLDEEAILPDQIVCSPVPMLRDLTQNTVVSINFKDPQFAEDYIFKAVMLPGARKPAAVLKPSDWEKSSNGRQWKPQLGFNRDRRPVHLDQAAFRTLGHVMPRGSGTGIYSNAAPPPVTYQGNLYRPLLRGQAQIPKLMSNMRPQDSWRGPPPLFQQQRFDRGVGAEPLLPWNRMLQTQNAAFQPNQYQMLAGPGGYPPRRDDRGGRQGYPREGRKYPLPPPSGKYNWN

[3] = biological target: T1, FLAG-tagged XRN2 WT, full-length, gRNA-resistant; test: co-IP; 293T cells transfected with the tagged proteins; lysates in 50 mM Tris pH 7.4, 150 mM NaCl, 1 mM EDTA with protease inhibitors; anti-FLAG beads overnight (FLAG pull-down); immunoblot
[4] = biological target: T2, FLAG-tagged XRN2-R946K, full-length, gRNA-resistant; test: as above

binding [1]: binds | binding [2]: binds | binding [3]: binds | binding [4]: binds
B1: p54nrb (protein, UniProt Q15233 1-471)
chain: MQSNKTFNLEKQNHTPRKHHQHHHQQQHHQQQQQQPPPPPIPANGQQASSQNEGLTIDLKNFRKPGEKTFTQRSRLFVGNLPPDITEEEMRKLFEKYGKAGEVFIHKDKGFGFIRLETRTLAEIAKVELDNMPLRGKQLRVRFACHSASLTVRNLPQYVSNELLEEAFSVFGQVERAVVIVDDRGRPSGKGIVEFSGKPAARKALDRCSEGSFLLTTFPRPVTVEPMDQLDDEEGLPEKLVIKNQQFHKEREQPPRFAQPGSFEYEYAMRWKALIEMEKQQQDQVDRNIKEAREKLEMEMEAARHEHQVMLMRQDLMRRQEELRRMEELHNQEVQKRKQLELRQEEERRRREEEMRRQQEEMMRRQQEGFKGTFPDAREQEIRMGQMAMGGAMGINNRGAMPPAPVPAGTPAPPGPATMMPDGTLGLTPPTTERFGQAATMEGIGAIGGTPPAFNRAAPGAEFAPNKRRRY
